Results on one molecule are retold here after publication doi:10.1101/2022.06.30.498318.

Results are given in words; binding and its absence hold for the method and conditions named. Binding seen in cells or lysates may run through a third protein. Tags and fused reporters may be left off the sequences shown.

In assay [1] the target is T1, Arabidopsis FBN4 with C-terminal myc tag (Arabidopsis thaliana) (UniProt Q9LW57).
T1 sequence: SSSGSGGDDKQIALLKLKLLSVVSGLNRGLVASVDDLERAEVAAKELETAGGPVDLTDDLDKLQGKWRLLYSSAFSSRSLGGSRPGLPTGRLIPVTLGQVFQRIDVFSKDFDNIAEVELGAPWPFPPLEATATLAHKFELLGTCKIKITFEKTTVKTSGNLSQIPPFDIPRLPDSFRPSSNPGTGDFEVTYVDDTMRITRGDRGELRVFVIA
The assay can be described thus: co-IP.

Assay [2] concerns the target T2, Arabidopsis phosphoribulokinase with C-terminal myc tag (Arabidopsis thaliana) (UniProt P25697).
T2 sequence: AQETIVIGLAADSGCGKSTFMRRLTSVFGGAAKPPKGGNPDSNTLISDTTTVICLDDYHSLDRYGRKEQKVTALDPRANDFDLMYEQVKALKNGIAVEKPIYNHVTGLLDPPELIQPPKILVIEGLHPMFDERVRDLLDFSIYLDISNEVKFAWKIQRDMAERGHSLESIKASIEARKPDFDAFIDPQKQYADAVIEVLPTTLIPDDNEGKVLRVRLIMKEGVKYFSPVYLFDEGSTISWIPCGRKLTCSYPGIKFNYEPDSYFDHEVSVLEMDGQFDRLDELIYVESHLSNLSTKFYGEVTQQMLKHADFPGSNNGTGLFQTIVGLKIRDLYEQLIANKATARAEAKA
The assay can be described thus: co-IP.

B1: Arabidopsis phytoene synthase with C-terminal GFP tag (enzyme, UniProt P37271 71-422)
chain: SSLVASPSGEIALSSEEKVYNVVLKQAALVNKQLRSSSYDLDVKKPQDVVLPGSLSLLGEAYDRCGEVCAEYAKTFYLGTLLMTPERRKAIWAIYVWCRRTDELVDGPNASHITPMALDRWEARLEDLFRGRPFDMLDAALADTVARYPVDIQPFRDMIEGMRMDLKKSRYQNFDDLYLYCYYVAGTVGLMSVPVMGIDPKSKATTESVYNAALALGIANQLTNILRDVGEDARRGRVYLPQDELAQAGLSDEDIFAGKVTDKWRNFMKMQLKRARMFFDEAEKGVTELSAASRWPVWASLLLYRRILDEIEANDYNNFTKRAYVGKVKKIAALPLAYAKSVLKTSSSRLSI
For the molecule B1, the binding entry in assay [1] and in assay [2] was “no binding” throughout.
